# Source: PubChem BioAssay AID2685 (National Center for Advancing Translational Sciences (NCATS), 2010)
# The other results are listed elsewhere or left out. Further columns of the screen follow, without active or inactive calls. The list favours compounds with an active or inconclusive main result. The note in brackets gives the kind of curve behind each potency; many fits are weak.
# Assay: qHTS Assay for Lipid Storage Modulators in Drosophila S3 Cells;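 for cell number change: cells counted by Cell Tracker Red CMTPX staining in the red channel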
# Details: BODIPY lipid droplet fluorescence, 18-24 h; for cell number change: measured here: cell count max response, cells fed with added oleic acid
# Summary of the method: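 Drosophila S3 cells got compounds at several concentrations plus oleic acid (400 uM solution). Laser-scanning cytometry with 488 nm excitation read lipid droplets at 500-530 nm and cells at 575-640 nm. Percent activity was relative to 20 uM Triacsin C.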
# [1] = measured here: lipid fluorescence (Fed channel) AC50, cells fed with added oleic acid
# [2] = measured here: cell number channel AC50, cells fed with added oleic acid
Structure (SMILES),cell number change [%],AC50 [1],AC50 [2]
C/C(=N\NC(=O)c1ccccc1)c1ccc2c(c1)OCO2,81.1,"0.366 µM [rising, full curve]",
O=C(Nc1ccc([N+](=O)[O-])cc1)c1ccccc1,-22.9,"29.1 µM [falling, single point]",
Fc1ccc(OCc2cc(-c3ccccc3)no2)cc1,20.1,"0.058 µM [rising, full curve, poor fit]",
CCOC(=O)C1CCCN(CCC(=O)Nc2cccc(Cl)c2C)C1 (stereo not given),26.3,"18.4 µM [rising, single point]",
COc1ccc(/C=N/n2c(C)cc(C)c(C(N)=O)c2=O)cc1,-62.8,"0.0259 µM [falling, full curve, poor fit]","29.1 µM [falling, single point]"
CCN(C(=O)CCc1nc(-c2ccccc2F)no1)c1cc(OC)ccc1OC,9.96,"0.651 µM [rising, partial curve, poor fit]",
CN(Cc1cccc(F)c1)C(=O)c1cc(=O)[nH]c2ccccc12,1.61,"18.4 µM [rising, single point]",
C#CCC(NC(=O)c1ccc(C(F)(F)F)cc1)C(=O)NCCC (stereo not given),10.1,"8.2 µM [rising, partial curve]",
CC1(C)CC(=O)C=C(c2ccc3ncccc3c2)C1,7.92,"1.64 µM [rising, partial curve, poor fit]",
CC1(C)SC(=S)N(NC(=O)Nc2ccccc2)C1N(O)C(=O)Nc1cccc2ccccc12 (stereo not given),-42.1,"2.91 µM [rising, partial curve]","2.91 µM [rising, partial curve]"
O=C(Nc1ccncc1)c1ccc(S(=O)(=O)Nc2ccccc2)cc1,-10.8,"29.1 µM [falling, single point]",
O=C(CSc1nnc(-c2ccccc2)n1C1CCCCC1)N1CCCC1,-10.7,,
O=C(c1ccccc1)n1c(=S)nc2ccccn21,4.19,,
Cc1nn(CC(=O)NC2C(=O)N3C(C(=O)O)=C(CSc4nnnn4C)CSC23)cc1Br (stereo not given),-20.1,"23.1 µM [falling, single point]",
C=CCNCc1cc(=O)n2c(-c3ccccc3)csc2n1,31.7,,"0.651 µM [rising, full curve]"
CC(C)(C)NC(=O)Cn1nnc(-c2ccc(Cl)cc2)n1,-0.065,"4.11 µM [rising, single point]",
O=C(CSc1nnc2c3c4c(sc3ncn12)CCCC4)NCc1ccco1,13.7,,
Cc1cccc(-c2cc3nc4c(c(N5CCOCC5)n3n2)CCCC4)c1,,,"6.51 µM [rising, single point]"
CN(/C=C/C(=O)C(F)(F)C(F)(F)F)Cc1ccccc1,19.6,"2.06 µM [falling, partial curve]",
C/C(N)=C(/C#N)C(=O)CSc1nc2ccccc2c(=O)n1CCCOC(C)C,-42.9,,"0.00461 µM [falling, full curve, poor fit]"
Cc1ccc2nc(SCC(=O)NCCCN3CCCC3=O)[nH]c2c1,39.8,"0.82 µM [falling, single point]","0.82 µM [falling, single point]"

Structure (SMILES),cell number change [%],AC50 [1],AC50 [2]
O=C(CCc1[nH]c2ccccc2c1Sc1ccccc1)NCCO,-38.9,,"29.1 µM [falling, single point]"
Cn1c(SC(C(=O)Nc2ccc(F)cc2)c2ccccc2)nc2ccccc21 (stereo not given),-5.62,"0.00461 µM [falling, full curve, poor fit]",
CCOC(=O)C1=C(N)n2c(s/c(=C\c3ccco3)c2=O)=C(C(=O)OC(C)C)C1c1ccco1 (stereo not given),-10.6,"1.46 µM [falling, partial curve]",
CC(C)(C)NC(=O)CC(CC(=O)O)c1ccccc1 (stereo not given),0.368,"3.66 µM [falling, single point]","6.51 µM [falling, single point]"
O=C(CSc1nnc(-c2ccc(Cl)cc2)n1Cc1ccco1)Nc1ccc2c(c1)OCCO2,-0.952,,
CCCCn1nnnc1NCc1cc(OC)c(OC)c(OC)c1,13.7,"0.146 µM [falling, full curve, poor fit]",
O=C(CSc1ncn[nH]1)NCCc1ccc(Cl)cc1,13.2,"0.631 µM [rising, full curve, poor fit]",
Cn1c(=O)c2c(ncn2CC(=O)OCC(=O)Nc2cc(Cl)ccc2Cl)n(C)c1=O,29.4,"0.517 µM [rising, full curve, poor fit]",
COC(=O)c1ccc(C(=O)OC)c(NC(=O)C(C)(C)C)c1,29.6,,
Cc1cccc(CN2CCN(CC(=O)N3CCCC3)C2=O)c1,22.3,,
Cc1ccc(C(C)C)cc1NC(=O)Nc1ccc([N+](=O)[O-])cc1,-30.2,"14.6 µM [falling, partial curve]","16.4 µM [falling, single point]"
CN(C1CCCCC1)S(=O)(=O)c1ccc(NC(=O)c2ccc(Br)o2)cc1,-51.4,"29.1 µM [falling, single point]",
COc1cccc(CNC(=O)CCc2nnc3ccc(NCCCN4CCCC4=O)nn23)c1,-22.9,,
COc1ccc([N+](=O)[O-])c2c(=O)ccoc12,-35.6,,"5.17 µM [falling, partial curve, poor fit]"
O=C(CCN1C(=O)[C@@H]2Cc3ccccc3CN2C1=O)Nc1cccc(F)c1,32.1,"29.1 µM [rising, single point]",
CCOC(=O)Cn1nc(-c2ccccc2)c2cnc3ccc(CC)cc3c21,-5.49,"1.03 µM [rising, partial curve]",
CCSC1(SCC)N=C(N)C2(C#N)C(c3ccc(F)cc3)C12C#N (stereo not given),116,,"20.6 µM [rising, single point]"
COC(=O)c1c(NC(=O)c2ccco2)sc2c1CCN(C(C)C)C2,-19.4,"7.31 µM [falling, partial curve, poor fit]",
COc1ccc(N2CCN(S(=O)(=O)c3ccc(OC)c(C(=O)N4CCCCC4)c3)CC2)cc1,-3.75,"1.46 µM [falling, partial curve, poor fit]",
O=c1oc2c(CN3CCOCC3)c(O)ccc2c2c1CCCC2,20,"0.92 µM [falling, full curve]","0.92 µM [falling, full curve]"
COc1cccc(NC(=O)CC2C(=O)NCCN2C(=S)Nc2ccc(F)cc2)c1 (stereo not given),-14.8,,

# Random excerpt: 4 records from the list.
Structure (SMILES),cell number change [%],AC50 [1],AC50 [2]
Cc1ccc2nc(SCC(=O)NCCCN3CCCC3=O)[nH]c2c1,39.8,"0.82 µM [falling, single point]","0.82 µM [falling, single point]"
CCOC(=O)C1=C(N)n2c(s/c(=C\c3ccco3)c2=O)=C(C(=O)OC(C)C)C1c1ccco1 (stereo not given),-10.6,"1.46 µM [falling, partial curve]",
C#CCC(NC(=O)c1ccc(C(F)(F)F)cc1)C(=O)NCCC (stereo not given),10.1,"8.2 µM [rising, partial curve]",
CN(/C=C/C(=O)C(F)(F)C(F)(F)F)Cc1ccccc1,19.6,"2.06 µM [falling, partial curve]",

# Remaining list, next part

Structure (SMILES),cell number change [%],AC50 [1],AC50 [2]
COc1ccc(Cl)cc1NC(=O)CN(C)CC(=O)Nc1ccc2c(c1)OCO2,101,,"11.6 µM [rising, partial curve]"
COc1ccc(CNC(=O)C(c2ccncc2)N(C(=O)Cc2cccs2)c2ccccc2)cc1 (stereo not given),12.9,"0.13 µM [rising, full curve]",
COc1ccc(CN2CCNC(=O)C2CC(=O)N(C)CCCN2CCOCC2)cc1C (stereo not given),-8.55,"0.13 µM [rising, full curve, poor fit]",
Nc1nc(C23CC4CC(CC(C4)C2)C3)cs1,-29.1,"18.4 µM [falling, single point]","3.66 µM [falling, full curve, poor fit]"
COc1ccc(N(CC(O)Cn2c(C)nc3ccccc32)S(=O)(=O)c2ccc(C)cc2)cc1 (stereo not given),-5.92,"0.00461 µM [falling, full curve, poor fit]","0.116 µM [falling, full curve, poor fit]"
CCOc1cc(CNc2ccc3c(c2)OCCO3)cc(Br)c1OC,-51.6,,"2.06 µM [rising, single point]"
CN(C)S(=O)(=O)c1cccc(CSCc2cccc(S(=O)(=O)N(C)C)c2)c1,-25.2,"23.1 µM [falling, single point]",
COCCNC(=O)/C(C#N)=C\c1ccc(CNS(=O)(=O)c2ccccc2)o1,-14.3,"20.6 µM [falling, single point]",
CCc1nnc(NC(=O)C2COc3ccccc3O2)s1 (stereo not given),44.5,,"18.4 µM [rising, single point]"
COc1ccc2c(c1OC)CN1CCc3cc4c(cc3[C@@H]1[C@@H]2O)OCO4,10.4,"2.31 µM [rising, partial curve]",
O=C(c1cc2nc(-c3ccc(F)cc3)cc(C(F)(F)F)n2n1)N1CCCCC1c1cccnc1 (stereo not given),-23.7,"20.6 µM [falling, single point]",
O=C1CC(=O)N(Cc2ccco2)C(=S)N1,-75.3,,"29.1 µM [falling, partial curve, poor fit]"
Cc1cc(=O)oc2cc(OS(C)(=O)=O)ccc12,,,"6.51 µM [rising, single point]"
Cc1nc2ccccc2cc1C(=O)N/N=C/c1ccco1,-16.7,,
CCOC(=O)NC(NC(=S)Nc1ccc(OCC)cc1)C(Cl)(Cl)Cl (stereo not given),-6.67,"0.184 µM [falling, full curve]",
COc1ccc(-c2cc(C(=O)Nc3c(C)n(C)n(-c4ccccc4)c3=O)no2)cc1,29.3,"29.1 µM [rising, single point]",
CCn1cc([N+](=O)[O-])c(C(=O)N2N=C(c3ccc(O)c(OC)c3)CC2c2ccccc2O)n1 (stereo not given),-71,"29.1 µM [falling, single point]","29.1 µM [falling, single point]"
COc1ccccc1-c1nnc2sc(COc3ccccc3)nn12,-19,"0.00411 µM [rising, full curve, poor fit]",
Cc1ccc(NCC(=O)c2ccc([N+](=O)[O-])cc2)cc1,-20.4,"23.1 µM [falling, partial curve, poor fit]",
